Results on two substances are retold here after article PMC3963837.

Amino acid sequences for entries named in this document (tags omitted). A change or cut given only in a name is not applied to a line headed by its entry.
UniProt P40645: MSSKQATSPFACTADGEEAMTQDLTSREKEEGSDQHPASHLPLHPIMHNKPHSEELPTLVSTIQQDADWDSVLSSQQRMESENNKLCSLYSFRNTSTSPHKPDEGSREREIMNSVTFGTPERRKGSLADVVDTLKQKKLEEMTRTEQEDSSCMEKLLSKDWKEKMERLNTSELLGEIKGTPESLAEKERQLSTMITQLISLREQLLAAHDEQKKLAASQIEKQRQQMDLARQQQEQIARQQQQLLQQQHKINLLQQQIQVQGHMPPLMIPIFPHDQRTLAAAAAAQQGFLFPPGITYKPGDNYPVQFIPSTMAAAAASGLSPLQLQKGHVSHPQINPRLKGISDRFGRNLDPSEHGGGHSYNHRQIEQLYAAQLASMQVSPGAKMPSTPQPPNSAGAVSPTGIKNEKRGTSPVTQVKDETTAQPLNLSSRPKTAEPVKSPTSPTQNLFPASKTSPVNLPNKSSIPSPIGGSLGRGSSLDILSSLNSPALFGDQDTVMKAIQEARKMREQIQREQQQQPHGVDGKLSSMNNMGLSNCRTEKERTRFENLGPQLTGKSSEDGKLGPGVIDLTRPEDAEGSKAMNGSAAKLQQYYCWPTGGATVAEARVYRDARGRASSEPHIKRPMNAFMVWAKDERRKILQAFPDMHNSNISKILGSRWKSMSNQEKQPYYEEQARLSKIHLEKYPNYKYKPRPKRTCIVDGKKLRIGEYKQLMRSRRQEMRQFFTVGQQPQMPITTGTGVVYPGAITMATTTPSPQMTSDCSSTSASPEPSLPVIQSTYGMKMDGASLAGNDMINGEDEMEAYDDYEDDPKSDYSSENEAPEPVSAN
UniProt P61809: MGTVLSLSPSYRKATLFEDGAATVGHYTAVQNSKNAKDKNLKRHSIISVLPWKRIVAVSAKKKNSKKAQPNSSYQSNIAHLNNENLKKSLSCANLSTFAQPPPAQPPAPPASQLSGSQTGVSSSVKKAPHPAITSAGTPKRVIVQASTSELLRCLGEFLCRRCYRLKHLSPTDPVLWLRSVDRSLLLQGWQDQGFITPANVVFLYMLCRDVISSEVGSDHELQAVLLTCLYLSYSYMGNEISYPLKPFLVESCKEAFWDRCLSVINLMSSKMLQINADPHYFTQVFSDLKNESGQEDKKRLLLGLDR

Results are given in words; binding and its absence hold for the method and conditions named. In cells and extracts the contact can be indirect. Some binding calls cover weakened binding; strength is not graded here.

The target in assay [1] is Sox6 (mouse (endogenous in PN0 brain, by the text; the legend says PN1 rat brain)) (UniProt P40645). The assay can be described thus: co-IP; endogenous proteins from postnatal brain lysate; IP with Sox6 antisera, Cdk5 antisera or control rabbit serum, protein A-agarose, washed with lysis buffer (50 mM Tris-HCl pH 7.5, 150 mM NaCl, 10 mM EDTA, 2 mM EGTA, 1% NP-40), Western blot. A general note: In western blotting, separated proteins are transferred to a membrane and probed.

Assay [2] concerns the target Cdk5/p35 complex (mouse (endogenous in PN0 brain, by the text; the legend says PN1 rat brain)) (UniProt P49615+P61809). The description is as above.

In the case of “Cdk5/p35 complex (from UniProt P49615 1-292; P61809 1-307)”, in assay [1], the binding entry is “binds”. On to Sox6 (from UniProt P40645 1-827), for which the binding result in assay [2] was “binds”.
